Data taken from the supplement of paper PMC10849652.
The list shows a part of the results.

Sequences of proteins named here, by UniProt entry; tags and fusion partners are left off. A change or cut given only in a name is not applied to a line headed by its entry.
UniProt P24539: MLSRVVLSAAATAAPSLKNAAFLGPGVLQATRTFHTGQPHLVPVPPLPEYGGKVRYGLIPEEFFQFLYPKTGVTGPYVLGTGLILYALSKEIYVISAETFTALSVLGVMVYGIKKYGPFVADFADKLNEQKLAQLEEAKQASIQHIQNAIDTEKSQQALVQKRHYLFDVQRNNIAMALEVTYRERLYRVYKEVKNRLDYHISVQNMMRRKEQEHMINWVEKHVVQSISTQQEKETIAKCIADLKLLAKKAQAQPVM
UniProt Q8IXJ9: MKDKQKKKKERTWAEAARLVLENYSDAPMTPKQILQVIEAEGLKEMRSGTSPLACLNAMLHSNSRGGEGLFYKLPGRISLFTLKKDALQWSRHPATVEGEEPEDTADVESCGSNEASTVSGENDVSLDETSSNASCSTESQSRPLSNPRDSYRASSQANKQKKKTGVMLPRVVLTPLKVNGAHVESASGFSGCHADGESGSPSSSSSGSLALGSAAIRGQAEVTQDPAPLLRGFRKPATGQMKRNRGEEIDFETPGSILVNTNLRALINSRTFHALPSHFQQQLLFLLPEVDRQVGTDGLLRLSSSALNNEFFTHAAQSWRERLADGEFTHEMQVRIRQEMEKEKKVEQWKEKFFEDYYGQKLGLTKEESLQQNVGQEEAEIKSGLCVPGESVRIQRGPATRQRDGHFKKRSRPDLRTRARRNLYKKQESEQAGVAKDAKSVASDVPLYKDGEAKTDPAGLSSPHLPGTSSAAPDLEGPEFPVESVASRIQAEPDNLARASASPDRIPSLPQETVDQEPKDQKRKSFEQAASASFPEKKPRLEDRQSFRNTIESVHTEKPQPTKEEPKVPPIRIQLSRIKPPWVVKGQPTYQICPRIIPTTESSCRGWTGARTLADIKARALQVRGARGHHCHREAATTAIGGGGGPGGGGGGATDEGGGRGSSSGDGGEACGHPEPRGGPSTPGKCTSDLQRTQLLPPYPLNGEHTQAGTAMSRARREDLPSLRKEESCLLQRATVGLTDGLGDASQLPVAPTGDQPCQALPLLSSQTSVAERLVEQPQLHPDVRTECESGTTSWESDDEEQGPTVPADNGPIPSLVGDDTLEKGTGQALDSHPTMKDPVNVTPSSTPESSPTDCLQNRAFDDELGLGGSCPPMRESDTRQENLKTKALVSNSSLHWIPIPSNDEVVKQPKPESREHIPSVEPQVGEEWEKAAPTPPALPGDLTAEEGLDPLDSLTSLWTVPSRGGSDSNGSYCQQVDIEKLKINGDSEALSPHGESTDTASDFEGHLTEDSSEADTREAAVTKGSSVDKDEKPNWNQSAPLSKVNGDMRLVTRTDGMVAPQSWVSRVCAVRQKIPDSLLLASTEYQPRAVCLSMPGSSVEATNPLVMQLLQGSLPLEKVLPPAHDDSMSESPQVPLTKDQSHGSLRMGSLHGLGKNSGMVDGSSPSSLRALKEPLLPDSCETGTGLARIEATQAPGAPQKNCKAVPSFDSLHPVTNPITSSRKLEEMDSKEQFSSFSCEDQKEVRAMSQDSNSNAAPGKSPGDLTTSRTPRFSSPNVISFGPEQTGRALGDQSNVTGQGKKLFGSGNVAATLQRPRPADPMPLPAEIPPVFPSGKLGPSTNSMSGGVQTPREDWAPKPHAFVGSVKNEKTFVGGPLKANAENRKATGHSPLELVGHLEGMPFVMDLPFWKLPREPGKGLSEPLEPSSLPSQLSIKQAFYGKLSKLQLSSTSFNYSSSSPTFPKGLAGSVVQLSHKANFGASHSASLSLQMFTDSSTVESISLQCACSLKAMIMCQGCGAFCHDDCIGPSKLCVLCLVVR
UniProt Q13825: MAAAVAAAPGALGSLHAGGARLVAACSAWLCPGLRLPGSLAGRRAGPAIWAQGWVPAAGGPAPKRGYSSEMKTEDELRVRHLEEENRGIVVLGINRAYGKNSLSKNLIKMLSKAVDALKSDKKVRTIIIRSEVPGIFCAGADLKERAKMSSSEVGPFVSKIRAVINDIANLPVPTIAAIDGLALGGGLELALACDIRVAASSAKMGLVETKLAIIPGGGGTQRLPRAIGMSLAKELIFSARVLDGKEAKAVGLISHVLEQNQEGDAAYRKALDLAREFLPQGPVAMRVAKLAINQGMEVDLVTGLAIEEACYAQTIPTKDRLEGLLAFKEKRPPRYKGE
UniProt P14415, whole entry, looked up: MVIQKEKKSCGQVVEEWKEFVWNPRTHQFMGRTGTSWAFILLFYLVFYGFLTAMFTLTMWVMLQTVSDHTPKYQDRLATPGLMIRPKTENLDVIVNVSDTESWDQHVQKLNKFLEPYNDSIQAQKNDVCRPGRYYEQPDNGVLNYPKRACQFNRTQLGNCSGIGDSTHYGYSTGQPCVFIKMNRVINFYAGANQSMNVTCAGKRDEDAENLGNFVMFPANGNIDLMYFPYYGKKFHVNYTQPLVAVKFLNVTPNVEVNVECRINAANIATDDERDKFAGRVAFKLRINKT
UniProt Q06055: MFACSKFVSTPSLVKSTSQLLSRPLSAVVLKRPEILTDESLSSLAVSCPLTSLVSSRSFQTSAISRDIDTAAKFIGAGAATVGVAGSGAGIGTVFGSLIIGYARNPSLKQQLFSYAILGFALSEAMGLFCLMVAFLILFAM
UniProt Q00973: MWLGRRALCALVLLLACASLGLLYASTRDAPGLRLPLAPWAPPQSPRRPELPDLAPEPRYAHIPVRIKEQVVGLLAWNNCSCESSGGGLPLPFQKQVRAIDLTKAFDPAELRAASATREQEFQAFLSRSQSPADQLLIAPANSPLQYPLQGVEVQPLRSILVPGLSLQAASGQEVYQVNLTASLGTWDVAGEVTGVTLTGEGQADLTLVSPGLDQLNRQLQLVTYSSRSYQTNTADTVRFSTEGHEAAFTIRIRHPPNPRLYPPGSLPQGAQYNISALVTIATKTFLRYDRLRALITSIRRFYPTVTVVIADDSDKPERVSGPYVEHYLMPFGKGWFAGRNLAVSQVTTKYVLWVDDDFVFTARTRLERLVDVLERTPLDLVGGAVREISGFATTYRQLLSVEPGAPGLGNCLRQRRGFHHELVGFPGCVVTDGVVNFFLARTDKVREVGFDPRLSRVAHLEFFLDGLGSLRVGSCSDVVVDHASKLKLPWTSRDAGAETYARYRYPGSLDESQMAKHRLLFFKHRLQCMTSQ
UniProt P15336: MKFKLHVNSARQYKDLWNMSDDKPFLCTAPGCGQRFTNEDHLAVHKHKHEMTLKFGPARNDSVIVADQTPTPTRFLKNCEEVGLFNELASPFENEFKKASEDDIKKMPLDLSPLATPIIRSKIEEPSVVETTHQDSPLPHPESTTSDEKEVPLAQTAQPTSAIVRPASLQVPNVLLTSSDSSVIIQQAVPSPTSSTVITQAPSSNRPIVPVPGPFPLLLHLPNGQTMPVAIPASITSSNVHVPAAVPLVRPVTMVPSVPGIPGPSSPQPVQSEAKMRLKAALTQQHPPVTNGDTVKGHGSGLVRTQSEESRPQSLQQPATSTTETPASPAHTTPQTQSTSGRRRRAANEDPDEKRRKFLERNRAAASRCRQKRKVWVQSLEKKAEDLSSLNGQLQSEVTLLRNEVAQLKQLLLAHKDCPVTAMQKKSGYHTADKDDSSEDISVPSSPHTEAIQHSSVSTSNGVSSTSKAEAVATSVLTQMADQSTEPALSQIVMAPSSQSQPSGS
UniProt Q96GX2: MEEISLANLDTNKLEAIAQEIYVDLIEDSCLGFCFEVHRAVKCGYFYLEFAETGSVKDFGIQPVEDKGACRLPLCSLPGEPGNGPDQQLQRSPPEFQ
UniProt P56381: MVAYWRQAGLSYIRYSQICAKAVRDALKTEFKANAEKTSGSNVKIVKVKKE
UniProt Q8WWM7: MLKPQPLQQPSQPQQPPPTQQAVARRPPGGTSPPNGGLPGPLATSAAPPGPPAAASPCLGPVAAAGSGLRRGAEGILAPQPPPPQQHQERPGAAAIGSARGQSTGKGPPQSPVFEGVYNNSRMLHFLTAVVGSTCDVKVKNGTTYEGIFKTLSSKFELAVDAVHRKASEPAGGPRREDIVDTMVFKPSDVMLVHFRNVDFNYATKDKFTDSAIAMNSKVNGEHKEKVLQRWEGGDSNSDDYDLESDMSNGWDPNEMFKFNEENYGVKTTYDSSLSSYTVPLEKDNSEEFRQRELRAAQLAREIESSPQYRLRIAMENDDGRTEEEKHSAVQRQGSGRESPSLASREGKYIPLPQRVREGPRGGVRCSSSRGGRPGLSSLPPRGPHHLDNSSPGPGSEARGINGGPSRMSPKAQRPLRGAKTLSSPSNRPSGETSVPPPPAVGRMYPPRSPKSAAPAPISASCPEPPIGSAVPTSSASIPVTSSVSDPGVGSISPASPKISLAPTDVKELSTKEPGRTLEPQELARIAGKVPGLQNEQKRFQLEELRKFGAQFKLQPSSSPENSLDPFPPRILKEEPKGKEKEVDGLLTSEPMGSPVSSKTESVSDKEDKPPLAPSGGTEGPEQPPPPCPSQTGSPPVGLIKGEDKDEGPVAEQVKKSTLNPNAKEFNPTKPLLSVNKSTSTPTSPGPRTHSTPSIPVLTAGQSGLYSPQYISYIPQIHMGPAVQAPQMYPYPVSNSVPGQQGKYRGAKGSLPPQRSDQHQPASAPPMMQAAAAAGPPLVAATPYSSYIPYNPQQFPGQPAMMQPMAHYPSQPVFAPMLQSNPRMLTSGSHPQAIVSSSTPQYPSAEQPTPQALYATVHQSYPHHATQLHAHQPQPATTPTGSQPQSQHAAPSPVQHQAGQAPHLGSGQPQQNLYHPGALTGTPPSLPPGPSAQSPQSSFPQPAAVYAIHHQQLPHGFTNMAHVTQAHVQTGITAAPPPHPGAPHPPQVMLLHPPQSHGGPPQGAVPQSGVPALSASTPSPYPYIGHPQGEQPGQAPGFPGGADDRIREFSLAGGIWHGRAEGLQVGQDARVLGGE
UniProt O75882: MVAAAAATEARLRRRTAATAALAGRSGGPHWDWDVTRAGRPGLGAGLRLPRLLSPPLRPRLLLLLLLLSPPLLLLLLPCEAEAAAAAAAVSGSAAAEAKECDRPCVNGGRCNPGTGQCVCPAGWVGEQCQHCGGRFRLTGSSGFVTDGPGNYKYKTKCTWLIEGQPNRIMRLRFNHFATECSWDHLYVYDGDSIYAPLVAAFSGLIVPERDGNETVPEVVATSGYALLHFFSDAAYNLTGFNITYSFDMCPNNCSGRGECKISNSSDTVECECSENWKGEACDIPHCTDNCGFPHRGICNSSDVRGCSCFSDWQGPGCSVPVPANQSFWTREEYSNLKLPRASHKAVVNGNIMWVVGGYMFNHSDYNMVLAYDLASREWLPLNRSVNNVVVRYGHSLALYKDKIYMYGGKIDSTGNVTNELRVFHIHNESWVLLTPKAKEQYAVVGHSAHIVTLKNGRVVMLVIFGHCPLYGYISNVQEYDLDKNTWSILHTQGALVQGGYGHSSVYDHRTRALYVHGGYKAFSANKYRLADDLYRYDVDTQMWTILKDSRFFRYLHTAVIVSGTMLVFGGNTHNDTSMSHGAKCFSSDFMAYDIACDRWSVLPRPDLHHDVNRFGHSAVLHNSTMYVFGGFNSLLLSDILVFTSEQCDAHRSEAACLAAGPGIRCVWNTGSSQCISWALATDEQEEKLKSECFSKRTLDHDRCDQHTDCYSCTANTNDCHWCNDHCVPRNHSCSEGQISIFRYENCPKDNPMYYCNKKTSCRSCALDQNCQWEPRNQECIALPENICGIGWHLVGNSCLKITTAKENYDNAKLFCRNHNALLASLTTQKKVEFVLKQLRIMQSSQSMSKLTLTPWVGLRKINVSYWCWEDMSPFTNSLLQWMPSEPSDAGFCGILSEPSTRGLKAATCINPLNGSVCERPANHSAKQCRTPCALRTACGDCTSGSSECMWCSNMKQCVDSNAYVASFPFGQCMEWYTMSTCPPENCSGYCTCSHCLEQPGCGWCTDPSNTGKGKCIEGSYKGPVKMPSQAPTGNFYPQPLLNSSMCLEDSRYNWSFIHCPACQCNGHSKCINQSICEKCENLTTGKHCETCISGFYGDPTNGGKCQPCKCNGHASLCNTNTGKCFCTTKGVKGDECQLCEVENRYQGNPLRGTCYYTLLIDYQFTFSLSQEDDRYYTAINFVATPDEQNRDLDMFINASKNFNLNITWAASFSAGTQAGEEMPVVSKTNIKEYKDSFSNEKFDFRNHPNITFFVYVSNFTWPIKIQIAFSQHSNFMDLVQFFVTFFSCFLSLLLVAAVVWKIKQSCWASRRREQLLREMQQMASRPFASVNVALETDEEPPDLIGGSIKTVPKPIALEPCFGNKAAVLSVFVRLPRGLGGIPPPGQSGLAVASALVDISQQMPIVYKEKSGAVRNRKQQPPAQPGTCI

Tests used:
Assay in all cases: log2 fold change, soluble protein after heating vs DMSO (PISA); higher = thermal stabilisation; K562 lysate, 10 uM; active = over 0.2 and 3.5 SD of the protein, either way, in both replicates (recomputed)
erlotinib = compound: C#Cc1cccc(Nc2ncnc3cc(OCCOC)c(OCCOC)cc23)c1 [erlotinib]
Outline: (§1)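 Quantification was by TMTpro 16plex LC-MS/MS with equalised channel sums, applied to the supernatant after 21,000xg for 90 min. Samples were crude K562 extract at 1 mg/mL protein in PBS pH 7.4 with 1 mM MgCl2, treated with 10 μM compound for 30 min, heated for 3 min across 48°C-58°C, pooled and brought to 0.5% NP-40 at 4°C. Values are log-two fold changes in thermal stability relative to solvent controls, from duplicates.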

[1] = compound: C/C(=N\NC(=O)C1=CC(=CC=C1)S(=O)(=O)N2CCOCC2)/C3=C(C=CC(=C3)Cl)O
Outline: as §1

[2] = compound: C1=CC(=CC=C1C2=NC3=C(N2)C=C(C=C3)C(=O)N)OC4=CC=C(C=C4)Cl
Outline: as §1

[3] = compound: C1=CC2=C(C=CC(=C2)/C=C\3/C(=O)NC(=NCC4=CC=CS4)S3)N=C1
Outline: as §1

[4] = compound: C1=CC2=NC=CN=C2C=C1/C=C/3\C(=O)NC(=O)S3
Outline: as §1

[5] = compound: C1=CC=C(C=C1)C2=NC(=C(N2)C3=CC=NC=C3)C4=CC(=C(C=C4)Cl)O
Outline: as §1

[6] = compound: C1=CC=C2C(=C1)C3=NNC4=CC=CC(=C43)C2=O
Outline: as §1

[7] = compound: C1CCN(C1)C(=O)NC2=CC=CC(=C2)NC3=NC=C(C(=N3)NCCC4=CN=CN4)Br
Outline: as §1

[8] = compound: C1CN(CCC1(CC2=CC=C(C=C2)Cl)N)C3=NC=NC4=C3C=CN4
Outline: as §1

IRAK-1-4 Inhibitor I = compound: C1COCCN1CCN2C3=CC=CC=C3N=C2NC(=O)C4=CC(=CC=C4)[N+](=O)[O-] [IRAK-1-4 Inhibitor I]
Outline: as §1

ibrutinib = compound: C=CC(=O)N1CCC[C@@H](n2nc(-c3ccc(Oc4ccccc4)cc3)c3c(N)ncnc32)C1 [ibrutinib]
Outline: as §1

[9] = compound: CC(=O)c1cnc2ccc(-c3cc(Cl)c(O)c(Cl)c3)nc2c1N[C@H]1CC[C@H](CN(C)C)CC1
Outline: as §1

ralimetinib = compound: CC(C)(C)Cn1c(N)nc2ccc(-c3[nH]c(C(C)(C)C)nc3-c3ccc(F)cc3)nc21 [ralimetinib]
Outline: as §1

[10] = compound: CC(C)(O)CC(=O)NCCn1ccc2ncnc(Nc3ccc(Oc4cccc(C(F)(F)F)c4)c(Cl)c3)c21
Outline: as §1

[11] = compound: CC(C)C1=C2N=C(C=C(N2N=C1)NCC3=CC=CC=C3)NCCCCCCN
Outline: as §1

[12] = compound: CC1=C(C(CC(=O)N1)C2=CC=C(C=C2)C(F)(F)F)C(=O)NC3=C(C=C4C(=C3)C=NN4)F
Outline: as §1

[13] = compound: CC1=C(C2=C(C=C1)C(=O)C3=CC=CC=C3N2CCCN)C
Outline: as §1

[14] = compound: CC1=C(C=C(C=C1)NC(=O)C2=CC(=CC=C2)C(C)(C)C#N)NC3=CC4=C(C=C3)N=CN(C4=O)C
Outline: as §1

[15] = compound: CC1=C(C=C(C=C1)NC(=O)C2=CC(=CC=C2)N(C)C)NC(=O)C3=CC=C(C=C3)O
Outline: as §1

[16] = compound: CC1=CC=C(C=C1)SC2=C3C=C(SC3=CN=C2)C(=O)N
Outline: as §1

Measured: log2 fold change

ATP5PB (UniProt P24539)
inactive: erlotinib -0.031 | [1] 0.012 | [2] -0.01 | [3] 0 | [4] 0.018 | [5] 0.005 | [6] 0.009 | [7] 0.012 | [8] 0.015 | IRAK-1-4 Inhibitor I 0 | ibrutinib -0.007 | [9] -0.031 | ralimetinib -0.036 | [10] 0.003 | [11] 0.005 | [12] -0.01 | [13] 0.006 | [14] -0.016 | [15] -0.005 | [16] 0.014

ATP2A2 (UniProt P16615)
inactive: erlotinib -0.021 | [1] 0.027 | [2] -0.036 | [3] 0.001 | [4] 0.01 | [5] -0.024 | [6] -0.062 | [7] -0.043 | [8] 0.051 | IRAK-1-4 Inhibitor I 0.026 | ibrutinib -0.002 | [9] -0.002 | ralimetinib 0.009 | [10] -0.021 | [11] -0.008 | [12] 0.006 | [13] 0.01 | [14] 0.026 | [15] 0.007 | [16] -0.003

ASXL1 (UniProt Q8IXJ9)
inactive: erlotinib 0.028 | [2] 0.008 | [4] 0.002 | [5] -0.049 | [7] 0.022 | [8] -0.027 | IRAK-1-4 Inhibitor I 0.065 | ibrutinib -0.009 | [9] -0.001 | ralimetinib 0.037 | [10] -0.005 | [11] -0.041 | [12] -0.085 | [13] -0.105 | [14] -0.023 | [15] -0.043 | [16] -0.029

AUH (UniProt Q13825)
inactive: erlotinib 0.003 | [1] -0.031 | [2] 0.083 | [3] -0.042 | [4] 0.111 | [5] 0.027 | [6] -0.035 | [7] 0.026 | [8] -0.045 | IRAK-1-4 Inhibitor I -0.008 | ibrutinib 0.024 | [9] 0.103 | ralimetinib -0.161 | [10] -0.003 | [11] 0.011 | [13] -0.304 | [14] 0.015 | [15] -0.132 | [16] -0.058

ATP5F1B (UniProt F8W0P7)
inactive: erlotinib 0.091 | [1] 0.178 | [2] 0.024 | [3] -0.015 | [6] -0.163 | [11] 0.031 | [13] -0.106

ATP1B2 (UniProt P14415)
inactive: erlotinib -0.011 | [1] 0.054 | [2] 0.015 | [3] 0.065 | [4] -0.008 | [5] -0.027 | [6] -0.06 | IRAK-1-4 Inhibitor I 0.007 | ibrutinib -0.028 | [9] -0.009 | ralimetinib -0.016 | [10] -0.024 | [11] -0.028 | [13] 0.015 | [15] 0.011 | [16] 0.018

ATP5MC2 isoform 2 (UniProt Q06055)
inactive: erlotinib 0.022 | [1] 0.053 | [2] -0.016 | [3] -0.013 | [4] -0.027 | [5] 0.006 | [6] 0 | [7] -0.044 | [8] 0.042 | IRAK-1-4 Inhibitor I 0.105 | ibrutinib 0.019 | [9] -0.016 | ralimetinib 0.057 | [10] -0.194 | [11] 0.057 | [12] -0.04 | [13] 0.031 | [14] 0.081 | [15] -0.01 | [16] 0.011

ATRX (UniProt P46100)
inactive: erlotinib 0.08 | [1] 0.124 | [2] 0.057 | [3] -0.075 | [4] 0.129 | [5] -0.093 | [6] 0.04 | [7] 0.015 | [8] 0.008 | IRAK-1-4 Inhibitor I 0.026 | ibrutinib 0.097 | ralimetinib 0.015 | [10] 0.098 | [11] 0.001 | [13] -0.011 | [14] 0.084 | [15] -0.078

ATXN2L (UniProt H3BUF6)
inactive: erlotinib 0.051 | [1] -0.259 | [2] 0.048 | [3] -0.025 | [6] 0.027 | [7] -0.067 | [8] 0.058 | [9] -0.013 | [11] -0.042 | [12] 0.052 | [13] -0.145 | [14] 0.11 | [16] 0.007

Pulled one by one from the list above (two):
ATP5F1B (UniProt F8W0P7)
inactive: erlotinib 0.091 | [1] 0.178 | [2] 0.024 | [3] -0.015 | [6] -0.163 | [11] 0.031 | [13] -0.106

ATP1B2 (UniProt P14415)
inactive: erlotinib -0.011 | [1] 0.054 | [2] 0.015 | [3] 0.065 | [4] -0.008 | [5] -0.027 | [6] -0.06 | IRAK-1-4 Inhibitor I 0.007 | ibrutinib -0.028 | [9] -0.009 | ralimetinib -0.016 | [10] -0.024 | [11] -0.028 | [13] 0.015 | [15] 0.011 | [16] 0.018

Next part:

B4GALNT1 (UniProt Q00973)
inactive: erlotinib 0.127 | [1] 0.072 | [2] -0.012 | [3] -0.055 | [5] -0.011 | [6] 0.018 | [7] -0.036 | [8] 0.028 | IRAK-1-4 Inhibitor I 0.068 | [9] 0.083 | ralimetinib -0.063 | [10] -0.059 | [11] -0.006 | [12] 0.107 | [13] -0.076 | [14] -0.024 | [15] -0.042 | [16] -0.027

ATP5MF-PTCD1 (UniProt G3V325)
inactive: erlotinib -0.02 | [1] 0.023 | [2] -0.045 | [3] -0.031 | [4] 0.01 | [5] -0.066 | [6] -0.04 | [7] 0.01 | [8] -0.029 | IRAK-1-4 Inhibitor I -0.05 | ibrutinib 0.035 | [9] 0.015 | ralimetinib 0.027 | [10] -0.051 | [11] -0.009 | [12] 0.052 | [13] -0.013 | [14] -0.019 | [15] -0.017 | [16] 0.02

ATF2 (UniProt P15336)
inactive: erlotinib -0.076 | [1] 0.41 | [2] -0.035 | [3] -0.037 | [4] 0.001 | [5] 0.025 | [6] -0.055 | [7] -0.011 | [8] -0.012 | IRAK-1-4 Inhibitor I 0.023 | ibrutinib -0.027 | [9] -0.054 | ralimetinib 0.004 | [10] -0.012 | [11] 0.048 | [12] 0.064 | [13] -0.02 | [14] -0.028 | [15] 0.021 | [16] 0.081

ATXN7L3B (UniProt Q96GX2)
inactive: erlotinib 0.033 | [1] 0.021 | [2] -0.044 | [3] 0.024 | [4] -0.017 | [5] -0.002 | [6] -0.037 | [7] -0.194 | [8] 0 | IRAK-1-4 Inhibitor I 0.022 | ibrutinib 0.031 | ralimetinib 0.019 | [10] -0.048 | [11] 0.039 | [12] -0.026 | [13] -0.014 | [14] 0.05 | [15] 0.029

ATP5F1E (UniProt P56381)
inactive: erlotinib -0.063 | [1] -0.044 | [2] 0.074 | [3] -0.006 | [4] -0.025 | [5] -0.019 | [6] -0.033 | [7] -0.046 | [8] -0.009 | IRAK-1-4 Inhibitor I -0.019 | ibrutinib -0.056 | [9] -0.042 | ralimetinib -0.071 | [10] 0.04 | [11] -0.011 | [12] -0.004 | [13] -0.014 | [14] 0.041 | [15] 0.004 | [16] -0.029

ATXN2L (UniProt Q8WWM7)
inactive: erlotinib -0.001 | [1] -0.157 | [2] -0.002 | [3] -0.009 | [4] -0.009 | [5] -0.07 | [6] 0.049 | [7] -0.141 | [8] -0.021 | IRAK-1-4 Inhibitor I 0.018 | ibrutinib 0.035 | ralimetinib 0.025 | [10] -0.053 | [11] -0.012 | [12] -0.046 | [13] 0.145 | [14] -0.072 | [15] 0.08

ATRN (UniProt O75882)
inactive: erlotinib -0.03 | [1] 0.121 | [2] 0.074 | [3] -0.25 | [4] 0.003 | [5] -0.044 | [6] 0.114 | [7] -0.027 | [8] -0.052 | IRAK-1-4 Inhibitor I 0.059 | ibrutinib 0.133 | [9] -0.064 | ralimetinib 0.01 | [10] -0.031 | [11] -0.113 | [13] -0.039 | [14] 0.027 | [15] 0.003 | [16] -0.016
